# Laboratory results published in the supplement of paper PMC10849652.
# Chains of the proteins cited; added tags and fusions are not shown. Lines headed by an entry give the natural chain unless they say otherwise; changes in a name come on top.
# UniProt O94885: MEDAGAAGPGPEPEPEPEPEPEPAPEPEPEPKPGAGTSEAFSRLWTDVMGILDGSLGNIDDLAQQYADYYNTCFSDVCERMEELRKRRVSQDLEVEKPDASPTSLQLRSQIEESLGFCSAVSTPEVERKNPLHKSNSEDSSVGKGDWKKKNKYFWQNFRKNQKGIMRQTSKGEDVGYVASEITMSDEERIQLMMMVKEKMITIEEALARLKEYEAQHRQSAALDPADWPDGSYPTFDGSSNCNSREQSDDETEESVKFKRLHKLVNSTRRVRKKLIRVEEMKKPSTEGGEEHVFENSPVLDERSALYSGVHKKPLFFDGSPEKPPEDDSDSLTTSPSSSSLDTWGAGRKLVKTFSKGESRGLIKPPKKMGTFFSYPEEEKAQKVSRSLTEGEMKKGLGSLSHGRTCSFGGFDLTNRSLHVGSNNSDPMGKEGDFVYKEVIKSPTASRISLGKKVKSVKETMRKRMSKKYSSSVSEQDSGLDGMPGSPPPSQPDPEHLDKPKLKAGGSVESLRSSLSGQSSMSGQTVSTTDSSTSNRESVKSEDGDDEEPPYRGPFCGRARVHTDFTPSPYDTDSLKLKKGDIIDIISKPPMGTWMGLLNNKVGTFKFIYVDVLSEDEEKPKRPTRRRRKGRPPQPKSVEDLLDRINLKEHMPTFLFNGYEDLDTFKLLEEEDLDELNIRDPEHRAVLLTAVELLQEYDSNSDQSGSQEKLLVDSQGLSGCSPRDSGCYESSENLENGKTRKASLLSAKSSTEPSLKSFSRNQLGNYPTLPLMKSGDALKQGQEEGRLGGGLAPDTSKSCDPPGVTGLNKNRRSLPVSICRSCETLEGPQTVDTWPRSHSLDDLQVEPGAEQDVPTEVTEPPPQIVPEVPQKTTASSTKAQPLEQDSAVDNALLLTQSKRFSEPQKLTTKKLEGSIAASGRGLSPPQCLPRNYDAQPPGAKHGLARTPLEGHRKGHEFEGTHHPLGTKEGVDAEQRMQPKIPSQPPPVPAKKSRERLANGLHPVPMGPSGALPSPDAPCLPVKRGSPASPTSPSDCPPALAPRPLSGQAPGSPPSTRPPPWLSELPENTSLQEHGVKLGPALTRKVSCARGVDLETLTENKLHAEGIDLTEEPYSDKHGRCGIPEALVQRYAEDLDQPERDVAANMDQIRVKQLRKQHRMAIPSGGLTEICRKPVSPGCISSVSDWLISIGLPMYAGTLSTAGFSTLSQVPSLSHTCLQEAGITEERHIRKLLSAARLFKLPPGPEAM
# UniProt Q9Y6D0, whole entry, looked up: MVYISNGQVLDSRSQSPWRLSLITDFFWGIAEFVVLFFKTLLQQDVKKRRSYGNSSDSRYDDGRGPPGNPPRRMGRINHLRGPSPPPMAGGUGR
# UniProt O60613, whole entry, looked up: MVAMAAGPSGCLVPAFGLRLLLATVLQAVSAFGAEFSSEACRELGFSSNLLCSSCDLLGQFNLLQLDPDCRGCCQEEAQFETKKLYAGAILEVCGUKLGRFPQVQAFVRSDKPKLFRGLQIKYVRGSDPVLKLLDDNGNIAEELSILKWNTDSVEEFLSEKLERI
# UniProt O75446: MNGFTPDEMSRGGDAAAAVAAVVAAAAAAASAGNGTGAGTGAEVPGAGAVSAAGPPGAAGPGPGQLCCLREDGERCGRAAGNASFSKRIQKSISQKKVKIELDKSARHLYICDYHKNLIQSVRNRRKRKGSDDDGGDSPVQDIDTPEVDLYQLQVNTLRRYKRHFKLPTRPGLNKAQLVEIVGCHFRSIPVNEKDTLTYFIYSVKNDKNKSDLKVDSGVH
# UniProt Q5K651: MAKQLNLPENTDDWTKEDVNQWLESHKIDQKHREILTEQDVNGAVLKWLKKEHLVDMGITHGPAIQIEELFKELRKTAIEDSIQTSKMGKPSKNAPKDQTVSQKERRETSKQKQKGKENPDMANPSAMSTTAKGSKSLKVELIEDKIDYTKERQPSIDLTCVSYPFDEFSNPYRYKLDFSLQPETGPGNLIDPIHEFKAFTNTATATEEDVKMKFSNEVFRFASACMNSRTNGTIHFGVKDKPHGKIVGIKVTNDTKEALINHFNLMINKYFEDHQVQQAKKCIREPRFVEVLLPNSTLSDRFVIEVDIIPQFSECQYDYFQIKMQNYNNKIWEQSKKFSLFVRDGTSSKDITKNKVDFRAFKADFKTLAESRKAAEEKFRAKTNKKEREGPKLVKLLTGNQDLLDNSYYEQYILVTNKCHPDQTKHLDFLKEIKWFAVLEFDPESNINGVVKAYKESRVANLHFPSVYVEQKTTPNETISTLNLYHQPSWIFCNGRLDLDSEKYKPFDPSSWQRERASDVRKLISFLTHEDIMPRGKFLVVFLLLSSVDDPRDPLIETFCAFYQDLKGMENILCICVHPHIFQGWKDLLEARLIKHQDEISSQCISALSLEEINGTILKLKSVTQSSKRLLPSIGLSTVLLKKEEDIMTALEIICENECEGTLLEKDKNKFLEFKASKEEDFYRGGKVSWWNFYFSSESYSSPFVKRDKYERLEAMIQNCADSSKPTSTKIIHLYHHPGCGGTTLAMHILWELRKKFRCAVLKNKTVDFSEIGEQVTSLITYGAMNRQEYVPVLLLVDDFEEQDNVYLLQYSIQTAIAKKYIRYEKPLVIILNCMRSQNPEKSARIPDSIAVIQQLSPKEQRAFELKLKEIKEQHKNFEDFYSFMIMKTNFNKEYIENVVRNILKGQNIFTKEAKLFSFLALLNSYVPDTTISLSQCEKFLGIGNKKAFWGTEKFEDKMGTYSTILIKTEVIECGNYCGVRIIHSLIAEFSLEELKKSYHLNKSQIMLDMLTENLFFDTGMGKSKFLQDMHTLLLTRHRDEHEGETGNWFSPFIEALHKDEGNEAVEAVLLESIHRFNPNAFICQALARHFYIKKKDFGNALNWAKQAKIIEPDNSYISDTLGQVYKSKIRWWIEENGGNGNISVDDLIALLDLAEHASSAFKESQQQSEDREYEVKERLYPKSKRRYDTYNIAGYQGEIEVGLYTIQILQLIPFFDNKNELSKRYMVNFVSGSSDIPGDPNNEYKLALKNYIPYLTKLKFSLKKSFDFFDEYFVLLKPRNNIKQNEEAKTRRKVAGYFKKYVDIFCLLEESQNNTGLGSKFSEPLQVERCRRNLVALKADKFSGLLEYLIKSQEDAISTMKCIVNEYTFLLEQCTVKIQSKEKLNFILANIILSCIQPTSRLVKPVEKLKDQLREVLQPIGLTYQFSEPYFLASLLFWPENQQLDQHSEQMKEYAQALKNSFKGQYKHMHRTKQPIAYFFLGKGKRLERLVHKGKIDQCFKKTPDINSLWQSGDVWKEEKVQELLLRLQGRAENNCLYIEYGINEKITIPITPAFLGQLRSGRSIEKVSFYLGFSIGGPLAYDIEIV
# UniProt Q96IW7: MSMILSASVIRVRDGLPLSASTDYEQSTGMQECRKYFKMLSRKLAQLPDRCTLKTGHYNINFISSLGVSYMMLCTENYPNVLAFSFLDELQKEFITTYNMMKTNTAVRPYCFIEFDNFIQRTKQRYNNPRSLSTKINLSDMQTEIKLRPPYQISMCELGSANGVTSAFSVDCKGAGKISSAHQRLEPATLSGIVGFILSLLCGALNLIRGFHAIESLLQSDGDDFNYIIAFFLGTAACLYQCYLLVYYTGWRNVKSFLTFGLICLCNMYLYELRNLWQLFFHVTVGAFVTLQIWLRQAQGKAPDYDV
# UniProt Q96T21: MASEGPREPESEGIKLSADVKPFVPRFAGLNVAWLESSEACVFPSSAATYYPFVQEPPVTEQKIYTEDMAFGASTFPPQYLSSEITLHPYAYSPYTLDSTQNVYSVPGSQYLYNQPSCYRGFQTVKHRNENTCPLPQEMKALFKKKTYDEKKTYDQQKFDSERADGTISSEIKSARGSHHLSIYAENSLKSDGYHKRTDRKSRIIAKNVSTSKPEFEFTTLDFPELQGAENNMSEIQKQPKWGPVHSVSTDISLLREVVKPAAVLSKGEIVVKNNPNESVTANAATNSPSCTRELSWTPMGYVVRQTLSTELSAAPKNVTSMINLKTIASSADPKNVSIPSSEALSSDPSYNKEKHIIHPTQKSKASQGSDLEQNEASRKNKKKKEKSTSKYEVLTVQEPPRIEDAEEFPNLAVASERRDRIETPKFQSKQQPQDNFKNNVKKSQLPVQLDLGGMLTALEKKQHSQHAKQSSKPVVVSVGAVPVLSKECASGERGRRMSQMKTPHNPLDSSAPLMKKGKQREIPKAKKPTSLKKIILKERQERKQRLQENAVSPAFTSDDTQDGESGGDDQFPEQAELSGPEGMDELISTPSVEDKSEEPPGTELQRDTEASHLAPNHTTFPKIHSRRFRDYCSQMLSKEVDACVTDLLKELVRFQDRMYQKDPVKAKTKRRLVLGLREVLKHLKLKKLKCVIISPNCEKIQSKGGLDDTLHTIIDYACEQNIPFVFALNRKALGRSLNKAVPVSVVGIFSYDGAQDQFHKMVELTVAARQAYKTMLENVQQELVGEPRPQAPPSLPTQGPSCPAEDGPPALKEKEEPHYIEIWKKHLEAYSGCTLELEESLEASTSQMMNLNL
# UniProt Q9NPR2: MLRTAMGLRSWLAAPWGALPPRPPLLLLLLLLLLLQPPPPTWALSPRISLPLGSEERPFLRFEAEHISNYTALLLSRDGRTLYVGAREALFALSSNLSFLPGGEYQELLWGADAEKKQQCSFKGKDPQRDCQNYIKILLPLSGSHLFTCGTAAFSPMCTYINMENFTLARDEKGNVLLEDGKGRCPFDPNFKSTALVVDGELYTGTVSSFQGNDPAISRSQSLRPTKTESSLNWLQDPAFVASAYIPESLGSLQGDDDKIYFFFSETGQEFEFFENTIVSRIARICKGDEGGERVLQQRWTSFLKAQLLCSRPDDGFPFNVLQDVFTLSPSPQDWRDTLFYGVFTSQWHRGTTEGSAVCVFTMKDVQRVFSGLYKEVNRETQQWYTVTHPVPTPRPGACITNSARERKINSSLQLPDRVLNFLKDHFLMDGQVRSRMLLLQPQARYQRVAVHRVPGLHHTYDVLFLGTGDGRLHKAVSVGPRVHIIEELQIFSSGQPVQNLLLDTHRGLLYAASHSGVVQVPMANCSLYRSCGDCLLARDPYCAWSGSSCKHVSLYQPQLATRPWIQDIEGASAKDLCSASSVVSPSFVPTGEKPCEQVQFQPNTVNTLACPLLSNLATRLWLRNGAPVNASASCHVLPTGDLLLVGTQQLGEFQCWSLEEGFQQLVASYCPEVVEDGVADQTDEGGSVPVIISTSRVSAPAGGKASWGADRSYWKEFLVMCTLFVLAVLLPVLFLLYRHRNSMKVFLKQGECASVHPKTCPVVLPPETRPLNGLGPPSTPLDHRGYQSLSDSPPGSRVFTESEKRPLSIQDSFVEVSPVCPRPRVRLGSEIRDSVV
# UniProt P60896: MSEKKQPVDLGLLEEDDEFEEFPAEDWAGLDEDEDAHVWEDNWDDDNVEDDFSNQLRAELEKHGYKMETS
# UniProt Q9NZV5, whole entry, looked up: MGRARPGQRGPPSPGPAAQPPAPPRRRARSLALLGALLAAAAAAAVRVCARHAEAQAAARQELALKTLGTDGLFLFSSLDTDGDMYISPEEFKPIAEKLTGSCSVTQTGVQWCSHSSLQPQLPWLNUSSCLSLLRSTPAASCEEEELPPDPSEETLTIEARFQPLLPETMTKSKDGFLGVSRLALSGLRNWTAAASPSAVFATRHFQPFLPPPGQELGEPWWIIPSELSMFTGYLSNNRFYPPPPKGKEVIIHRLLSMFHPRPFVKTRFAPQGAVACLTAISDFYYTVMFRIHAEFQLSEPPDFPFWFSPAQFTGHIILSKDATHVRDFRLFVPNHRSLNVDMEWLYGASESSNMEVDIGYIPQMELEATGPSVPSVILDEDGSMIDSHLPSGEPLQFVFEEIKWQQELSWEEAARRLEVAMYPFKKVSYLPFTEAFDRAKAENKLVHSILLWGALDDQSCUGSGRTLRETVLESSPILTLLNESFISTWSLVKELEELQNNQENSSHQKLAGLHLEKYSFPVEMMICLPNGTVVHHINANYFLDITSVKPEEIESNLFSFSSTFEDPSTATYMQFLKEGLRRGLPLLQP
# UniProt O75056, whole entry, looked up: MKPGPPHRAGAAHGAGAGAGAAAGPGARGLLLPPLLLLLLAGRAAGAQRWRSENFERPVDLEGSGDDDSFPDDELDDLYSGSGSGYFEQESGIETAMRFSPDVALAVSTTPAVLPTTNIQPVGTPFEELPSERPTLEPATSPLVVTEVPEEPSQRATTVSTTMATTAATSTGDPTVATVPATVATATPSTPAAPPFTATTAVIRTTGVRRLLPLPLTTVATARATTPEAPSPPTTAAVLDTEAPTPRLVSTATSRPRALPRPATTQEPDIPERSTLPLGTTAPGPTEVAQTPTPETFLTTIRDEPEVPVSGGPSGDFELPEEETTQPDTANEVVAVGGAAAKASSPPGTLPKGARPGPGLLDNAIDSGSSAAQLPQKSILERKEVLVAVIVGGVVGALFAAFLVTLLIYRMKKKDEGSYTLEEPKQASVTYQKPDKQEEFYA
# UniProt Q9HAJ7: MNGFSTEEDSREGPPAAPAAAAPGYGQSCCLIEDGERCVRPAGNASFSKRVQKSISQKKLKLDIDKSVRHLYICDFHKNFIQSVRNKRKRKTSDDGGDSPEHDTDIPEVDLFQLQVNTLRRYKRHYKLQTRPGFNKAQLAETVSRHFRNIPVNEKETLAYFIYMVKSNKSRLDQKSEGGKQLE
# Some of the results follow.
# What was measured:
# Assay in all cases: log2 fold change, soluble protein after heating vs DMSO (PISA); higher = thermal stabilisation; K562 lysate, 10 uM; active = over 0.2 and 3.5 SD of the protein, either way, in both replicates (recomputed)
# nilotinib = compound: Cc1cn(-c2cc(NC(=O)c3ccc(C)c(Nc4nccc(-c5cccnc5)n4)c3)cc(C(F)(F)F)c2)cn1 [nilotinib]
# Method in brief: (§1)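 Log-two fold change in thermal stability relative to solvent controls is reported from duplicates. For each sample, crude K562 extract from dounce-homogenised pellets in PBS pH 7.4 with 1 mM MgCl2, at 1 mg/mL protein, was treated with 10 μM compound for 30 min. Aliquots heated for 3 min across 48°C-58°C were pooled, brought to 0.5% NP-40 at 4°C and cleared at 21,000xg for 90 min. The supernatant was quantified by TMTpro 16plex LC-MS/MS with channel sums equalised.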
# [1] = compound: Cc1nc(Nc2n[nH]c3c2CN(C(=O)N[C@H](CN(C)C)c2ccccc2)C3(C)C)c2sccc2n1
# Method in brief: as §1
# dasatinib = compound: Cc1nc(Nc2ncc(C(=O)Nc3c(C)cccc3Cl)s2)cc(N2CCN(CCO)CC2)n1 [dasatinib]
# Method in brief: as §1
# [2] = compound: Cc1ncc(-c2ccnc(Nc3ccc(S(C)(=O)=O)cc3)n2)n1C(C)C
# Method in brief: as §1
# [3] = compound: Cn1cc(-c2ccc3c(c2)CCN3C(=O)Cc2cccc(C(F)(F)F)c2)c2c(N)ncnc21
# Method in brief: as §1
# quisinostat = compound: Cn1cc(CNCC2CCN(c3ncc(C(=O)NO)cn3)CC2)c2ccccc21 [quisinostat]
# Method in brief: as §1
# tipifarnib = compound: Cn1cncc1[C@@](N)(c1ccc(Cl)cc1)c1ccc2c(c1)c(-c1cccc(Cl)c1)cc(=O)n2C [tipifarnib]
# Method in brief: as §1
# [4] = compound: NC(=O)Nc1cc(-c2cccc(F)c2)sc1C(=O)N[C@H]1CCCNC1
# Method in brief: as §1
# [5] = compound: NC(=O)c1cnc(N[C@@H]2CCCC[C@@H]2N)nc1Nc1cccc(-n2nccn2)c1
# Method in brief: as §1
# [6] = compound: NC1(c2ccc(-c3nc4ccn5c(=O)[nH]nc5c4cc3-c3ccccc3)cc2)CCC1
# Method in brief: as §1
# vorinostat = compound: O=C(CCCCCCC(=O)Nc1ccccc1)NO [vorinostat]
# Method in brief: as §1
# silmitasertib = compound: O=C(O)c1ccc2c(c1)nc(Nc1cccc(Cl)c1)c1ccncc12 [silmitasertib]
# Method in brief: as §1
# [7] = compound: O=C1NC(=O)C(c2cnc3ccccn23)=C1c1cn2c3c(cc(F)cc13)CN(C(=O)N1CCCCC1)CC2
# Method in brief: as §1
# entospletinib = compound: c1cn2cc(-c3ccc4cn[nH]c4c3)nc(Nc3ccc(N4CCOCC4)cc3)c2n1 [entospletinib]
# Method in brief: as §1
# [8] = compound: NCC(=O)Nc1ccc(-n2nc(C(F)(F)F)cc2-c2ccc3c(ccc4ccccc43)c2)cc1
# Method in brief: as §1
Target,log2 fold change (nilotinib),log2 fold change [1],log2 fold change (dasatinib),log2 fold change [2],log2 fold change [3],log2 fold change (quisinostat),log2 fold change (tipifarnib),log2 fold change [4],log2 fold change [5],log2 fold change [6],log2 fold change (vorinostat),log2 fold change (silmitasertib),log2 fold change [7],log2 fold change (entospletinib),log2 fold change [8]
SASH1 (UniProt O94885),inactive: 0.036,inactive: -0.078,inactive: 0.068,inactive: -0.029,inactive: -0.014,inactive: 0.011,inactive: -0.026,inactive: -0.004,inactive: -0.057,inactive: 0.06,inactive: 0.144,inactive: -0.014,inactive: 0.091,inactive: 0.087,–
SEC31A (UniProt H0YAB3),inactive: 0.015,inactive: 0.035,inactive: -0.057,inactive: 0.135,inactive: 0.016,–,inactive: -0.073,–,inactive: 0.054,inactive: -0.021,inactive: 0.059,inactive: 0.042,–,–,–
SELENOK (UniProt Q9Y6D0),inactive: -0.009,inactive: -0.032,inactive: 0.082,inactive: 0.064,inactive: -0.032,–,inactive: -0.077,–,inactive: 0.001,–,–,–,–,–,inactive: -0.192
SELENOF (UniProt O60613),inactive: 0.061,inactive: -0.006,inactive: 0.001,inactive: 0.03,inactive: 0.025,inactive: -0.009,inactive: -0.026,inactive: -0.003,inactive: -0.035,inactive: -0.034,inactive: 0.158,inactive: -0.01,inactive: 0.02,inactive: -0.022,inactive: -0.096
SAP30 (UniProt O75446),inactive: 0.104,active: -0.464,inactive: -0.063,inactive: -0.124,inactive: 0.012,inactive: -0.111,inactive: -0.026,inactive: 0.037,inactive: -0.035,–,–,–,inactive: -0.024,inactive: -0.022,inactive: 0.001
SAMD9 (UniProt Q5K651),inactive: -0.08,inactive: 0.032,–,inactive: 0.127,–,inactive: -0.074,inactive: 0.151,inactive: 0.008,inactive: 0.067,–,–,–,inactive: 0.018,inactive: 0.003,–
SALL2 (UniProt Q9Y467),inactive: -0.08,inactive: -0.026,inactive: 0.046,inactive: 0.031,inactive: -0.073,inactive: 0.039,inactive: -0.106,inactive: 0.02,inactive: -0.153,inactive: -0.039,inactive: -0.412,inactive: -0.197,inactive: 0.003,inactive: 0.028,–
SEPTIN8 (UniProt F8W8I8),inactive: 0.077,inactive: 0.091,inactive: -0.134,inactive: -0.109,inactive: 0.024,–,inactive: -0.001,–,inactive: 0.147,inactive: -0.075,inactive: 0.157,inactive: 0.1,–,–,–
SEC22A (UniProt Q96IW7),inactive: -0.097,inactive: -0.013,–,inactive: 0.338,–,inactive: 0.072,inactive: -0.242,inactive: -0.112,inactive: 0.053,–,–,–,inactive: 0.029,–,–
SECISBP2 (UniProt Q96T21),inactive: 0.115,inactive: 0.058,inactive: -0.072,inactive: -0.097,inactive: -0.028,inactive: -0.076,inactive: -0.065,inactive: 0.218,inactive: 0.213,–,–,–,inactive: -0.038,inactive: -0.029,inactive: -0.089
SCARB2 isoform 2 (UniProt Q14108),inactive: 0.049,inactive: 0.006,inactive: 0,inactive: -0.074,inactive: 0.092,–,inactive: -0.004,–,inactive: 0.049,–,–,–,–,–,–
SEMA4B (UniProt Q9NPR2),inactive: 0.04,inactive: -0.116,inactive: 0.035,inactive: 0.073,inactive: 0.163,inactive: -0.03,inactive: 0.031,inactive: -0.001,inactive: -0.05,inactive: 0.003,inactive: 0.187,inactive: -0.065,inactive: -0.112,inactive: 0.102,inactive: -0.538
SEM1 (UniProt P60896),–,–,–,–,–,–,–,–,–,inactive: -0.058,inactive: 0.126,inactive: -0.053,–,–,–
SELENON (UniProt Q9NZV5),–,–,inactive: -0.21,–,inactive: 0.073,–,–,–,–,inactive: -0.033,inactive: 0.078,inactive: -0.021,–,–,–
SBSN (UniProt Q6UWP8),–,–,–,–,–,–,–,–,–,inactive: 0.371,inactive: 0.09,inactive: -0.133,–,–,–
SDC3 (UniProt O75056),–,–,inactive: 0.119,–,inactive: -0.073,inactive: -0.1,–,inactive: -0.024,–,inactive: -0.075,inactive: 0.114,inactive: 0.029,inactive: -0.059,–,–
SAP30L (UniProt Q9HAJ7),–,–,–,–,–,inactive: 0.075,–,inactive: -0.237,–,inactive: 0.055,inactive: -0.334,inactive: 0.21,inactive: -0.002,–,–
SCGB1D1 (UniProt O95968),–,–,–,–,–,–,–,–,–,inactive: -0.035,inactive: 0.435,inactive: -0.066,–,–,–

# Part of the list above, with tabs:
Target	log2 fold change (nilotinib)	log2 fold change [1]	log2 fold change (dasatinib)	log2 fold change [2]	log2 fold change [3]	log2 fold change (quisinostat)	log2 fold change (tipifarnib)	log2 fold change [4]	log2 fold change [5]	log2 fold change [6]	log2 fold change (vorinostat)	log2 fold change (silmitasertib)	log2 fold change [7]	log2 fold change (entospletinib)	log2 fold change [8]
SEC22A (UniProt Q96IW7)	inactive: -0.097	inactive: -0.013	–	inactive: 0.338	–	inactive: 0.072	inactive: -0.242	inactive: -0.112	inactive: 0.053	–	–	–	inactive: 0.029	–	–
SECISBP2 (UniProt Q96T21)	inactive: 0.115	inactive: 0.058	inactive: -0.072	inactive: -0.097	inactive: -0.028	inactive: -0.076	inactive: -0.065	inactive: 0.218	inactive: 0.213	–	–	–	inactive: -0.038	inactive: -0.029	inactive: -0.089
